# These are yes or no findings as the source states them, for the method shown. In cells and extracts the contact can be indirect. Some entries that bind do so weakly or less than the wild type.
# The chains behind the UniProt entries cited, without tags or fusion partners.
# UniProt P15104: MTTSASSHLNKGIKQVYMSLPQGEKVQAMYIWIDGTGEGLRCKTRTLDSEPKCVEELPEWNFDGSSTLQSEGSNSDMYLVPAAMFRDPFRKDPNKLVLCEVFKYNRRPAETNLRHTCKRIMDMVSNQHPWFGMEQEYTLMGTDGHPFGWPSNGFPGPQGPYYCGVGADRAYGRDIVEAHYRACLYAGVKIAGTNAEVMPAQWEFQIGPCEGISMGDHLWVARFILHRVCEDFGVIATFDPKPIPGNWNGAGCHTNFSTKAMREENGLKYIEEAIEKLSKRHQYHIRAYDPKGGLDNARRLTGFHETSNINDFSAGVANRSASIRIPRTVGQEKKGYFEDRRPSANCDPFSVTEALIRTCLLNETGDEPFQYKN
# UniProt O15379: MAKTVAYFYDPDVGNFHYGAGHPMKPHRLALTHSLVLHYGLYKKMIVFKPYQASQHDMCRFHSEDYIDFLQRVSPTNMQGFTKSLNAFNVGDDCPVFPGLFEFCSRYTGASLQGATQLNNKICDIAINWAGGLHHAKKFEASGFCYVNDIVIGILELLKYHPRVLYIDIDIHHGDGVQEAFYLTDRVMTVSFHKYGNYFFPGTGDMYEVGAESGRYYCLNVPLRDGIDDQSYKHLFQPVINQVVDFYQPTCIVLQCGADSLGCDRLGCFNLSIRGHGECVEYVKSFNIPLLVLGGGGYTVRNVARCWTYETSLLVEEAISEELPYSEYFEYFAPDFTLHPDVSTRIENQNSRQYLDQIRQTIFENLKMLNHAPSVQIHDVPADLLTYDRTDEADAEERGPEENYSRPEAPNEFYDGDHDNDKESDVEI
# Target: glutamine synthetase (GS), Flag-tagged (human) (UniProt P15104)
# Experiment: co-IP; co-IP from cells cultured with or without glutamine (Figure S7A-D); bait, cell line and buffers not shown
substance,measurement,value
"HDAC3, HA-tagged (from UniProt O15379 1-428) (enzyme)",binding,binds
